{"sequences": {"note": "By UniProt entry, the sequences of proteins in these tests, tags left out.", "UniProt Q14191, whole entry, looked up": "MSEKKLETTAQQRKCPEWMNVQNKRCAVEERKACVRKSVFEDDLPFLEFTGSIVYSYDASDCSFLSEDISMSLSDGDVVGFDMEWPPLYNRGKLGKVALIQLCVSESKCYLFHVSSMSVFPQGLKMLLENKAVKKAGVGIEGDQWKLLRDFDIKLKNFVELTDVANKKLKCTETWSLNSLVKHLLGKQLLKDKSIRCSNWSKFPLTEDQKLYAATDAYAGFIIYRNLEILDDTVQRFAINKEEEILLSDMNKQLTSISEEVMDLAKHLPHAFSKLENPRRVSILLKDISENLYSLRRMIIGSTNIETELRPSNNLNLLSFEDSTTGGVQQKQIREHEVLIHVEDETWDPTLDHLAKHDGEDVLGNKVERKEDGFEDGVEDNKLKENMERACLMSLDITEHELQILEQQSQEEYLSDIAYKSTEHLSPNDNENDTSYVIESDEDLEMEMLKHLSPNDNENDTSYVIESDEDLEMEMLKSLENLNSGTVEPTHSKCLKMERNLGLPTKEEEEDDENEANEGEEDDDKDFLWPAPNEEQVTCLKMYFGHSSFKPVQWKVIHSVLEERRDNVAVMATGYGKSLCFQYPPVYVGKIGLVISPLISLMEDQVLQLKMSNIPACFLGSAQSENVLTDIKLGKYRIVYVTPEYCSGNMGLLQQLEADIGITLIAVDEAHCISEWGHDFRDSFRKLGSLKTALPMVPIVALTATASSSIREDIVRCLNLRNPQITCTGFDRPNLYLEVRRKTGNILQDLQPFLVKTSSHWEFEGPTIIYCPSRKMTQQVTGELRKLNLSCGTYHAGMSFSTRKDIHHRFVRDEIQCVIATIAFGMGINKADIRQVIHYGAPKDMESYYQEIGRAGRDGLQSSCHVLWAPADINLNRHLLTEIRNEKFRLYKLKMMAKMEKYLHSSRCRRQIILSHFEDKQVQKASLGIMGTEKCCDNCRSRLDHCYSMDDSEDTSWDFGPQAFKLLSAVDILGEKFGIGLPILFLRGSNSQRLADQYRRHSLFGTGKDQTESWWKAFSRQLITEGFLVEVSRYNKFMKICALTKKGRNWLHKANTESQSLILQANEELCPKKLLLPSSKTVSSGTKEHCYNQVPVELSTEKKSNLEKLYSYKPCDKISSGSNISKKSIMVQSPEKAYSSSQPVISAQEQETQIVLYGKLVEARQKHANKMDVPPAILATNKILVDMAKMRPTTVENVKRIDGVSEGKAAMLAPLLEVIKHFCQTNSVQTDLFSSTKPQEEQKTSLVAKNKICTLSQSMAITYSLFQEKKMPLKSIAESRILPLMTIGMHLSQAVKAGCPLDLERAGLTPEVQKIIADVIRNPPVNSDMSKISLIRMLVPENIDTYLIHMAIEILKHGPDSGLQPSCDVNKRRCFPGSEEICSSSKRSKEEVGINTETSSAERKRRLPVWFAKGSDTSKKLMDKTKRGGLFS"}, "source": "PubChem BioAssay AID651768", "about": "(National Center for Advancing Translational Sciences (NCATS), 2012)", "note": "The whole screen tested about 360,000 compounds, of which about 1,700 (0.47%) were called active. The shares of active, inactive and inconclusive entries below differ from those in the screen. The call rests on the fitted dose curve; in most records, active means well fitted inhibition curve with a large enough effect; inconclusive means small, poorly fitted or top-dose-only effect; inactive means no such curve, though single readings can be large or run the other way. A potency beside an inconclusive call is a rough fit, not a confirmed value. On the % scale 0 is the no-effect control and ±100 the full control effect; potency means the concentration at half of the fitted maximal effect."}
{"target": "Bifunctional 3'-5' exonuclease/ATP-dependent helicase WRN (Homo sapiens) (UniProt Q14191)", "assay": "qHTS for Inhibitors of WRN Helicase; further: nearly all actives have a fitted effect of over 55% in size", "conditions": "WRN helicase unwinding, fluorescent forked duplex, kinetic; activity change, negative = inhibition: at 114 µM (top of the series) unless noted", "summary_of_the_method": "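WRN at 20 nM final was preincubated with compound for 15 min at room temperature; reaction started with 100 nM forked duplex oligonucleotide carrying fluorophore and quencher plus 2 mM ATP (final). Unwinding followed kinetically by red fluorescence (ex 525/em 598 nm).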"}
{"smiles": "COc1ccc(S(=O)(=O)N(CC(N)=O)C2CCCCC2)cc1Cl", "Potency": "inactive"}
{"smiles": "Cc1ccc(-c2ccc(/C=C3\\C(=O)ON=C3c3ccccc3)o2)c([N+](=O)[O-])c1", "Potency": "active: 39.8 µM"}
{"smiles": "COCCn1c(SCC(=O)Nc2cccc(S(N)(=O)=O)c2)nc2cc(Cl)ccc2c1=O", "Potency": "inconclusive: 70.8 µM [inhibitor, single point]"}
{"smiles": "COc1ccc(NC(=O)/C=C/c2ccc(Br)o2)cn1", "Potency": "inconclusive: 56.2 µM [inhibitor, partial curve]"}
{"smiles": "CCc1n[nH]c(=S)n1/N=C/c1cc(OC)cc([N+](=O)[O-])c1O", "Potency": "inconclusive: 8.44 µM [inhibitor, partial curve]"}
{"smiles": "CCCc1cc(=O)[nH]c(-n2[nH]c3c(c2=O)CCCC3)n1", "Potency": "inconclusive: 50.1 µM [inhibitor, partial curve, poor fit]"}
{"smiles": "COc1cc(C(=O)NNC(=O)c2nn(C)c(=O)c3ccccc23)cc(OC)c1OC", "Potency": "inconclusive: 22.4 µM [inhibitor, full curve, poor fit]"}
{"smiles": "CSC1=N/C(=C\\c2ccc(Br)o2)C(=O)S1", "Potency": "inconclusive: 56.2 µM [inhibitor, partial curve, poor fit]"}
{"smiles": "CCOC(=O)c1c(NC(=O)CCC(=O)N(CC)CC)sc2c1CC(C)(C)OC2", "Potency": "inactive"}
{"smiles": "Cc1c(Br)c(=O)oc2c(Br)c(O)ccc12", "Potency": "inactive"}
{"smiles": "COc1ccc(NC(=O)CSc2nc(O)cc(=O)n2C)cc1", "Potency": "inconclusive: 11.2 µM [inhibitor, partial curve]"}
{"smiles": "Cc1ccccc1N1C(=O)c2sc3nc4c(c(=O)n3c2C1=O)CCC4", "Potency": "inconclusive: 39.8 µM [inhibitor, single point]"}
{"smiles": "O=C(CCCN1C(=O)/C(=C\\c2ccco2)SC1=S)Nc1ccc(O)cc1C(=O)O", "Potency": "active: 15.8 µM"}
{"smiles": "COc1ccc(C2=C(C=O)Cc3ccccc3O2)cc1", "Potency": "inconclusive: 3.98 µM [inhibitor, full curve, poor fit]"}
{"smiles": "CC1C2(C)OC(=N)C(C#N)(C(C)O2)C1(C#N)C#N", "note": "(stereo unspecified)", "Potency": "active: 79.4 µM"}
{"smiles": "O=C(O)C1C2C=CC(CC2)C1C(=O)O", "note": "(stereo unspecified)", "Potency": "inconclusive: 56.2 µM [inhibitor, partial curve]"}
{"smiles": "Cc1nc(CNS(=O)(=O)c2cccc(F)c2)cs1", "Potency": "inactive"}
{"smiles": "COc1ccc(N2CC(C(=O)N/N=C/c3c[nH]c4ccccc34)CC2=O)cc1", "note": "(stereo unspecified)", "Potency": "inconclusive: 28.2 µM [inhibitor, single point]"}
{"smiles": "c1ccc(C(c2ccccc2)N2CCN(Cc3nc(-c4cnccn4)no3)CC2)cc1", "Potency": "inactive"}
{"smiles": "Cc1ccc(S(=O)(=O)CCSc2cccc(C(=O)Nc3ccccc3C(=O)O)c2)cc1", "Potency": "inconclusive: 20 µM [inhibitor, single point]"}
{"smiles": "CCOC(=O)c1nc(Nc2ccccc2CC)c2ccccc2n1", "Potency": "inactive"}
{"smiles": "O=C(CCCN1C(=O)/C(=C/c2cccs2)SC1=S)Nc1ccccn1", "Potency": "inactive"}
{"smiles": "COc1ccc2c(c1)C(=O)N(Cc1ccccc1)C(=O)C2(C)C", "Potency": "inconclusive: 89.1 µM [inhibitor, single point]"}
{"smiles": "O=C1C(=Cc2cn(-c3ccccc3)nc2-c2ccc(OCc3ccccc3F)cc2)SC(=S)N1CCS(=O)(=O)O", "Potency": "active: 31.6 µM"}
{"smiles": "O=C(Nc1ccc2nc(-c3ccc(Br)o3)[nH]c2c1)c1cccs1", "Potency": "inconclusive: 100 µM [inhibitor, partial curve]"}
{"smiles": "COc1cc(/C=C2/C(=O)NN(c3ccc(Cl)cc3)C2=O)ccc1OC(=O)c1ccco1", "Potency": "active: 39.8 µM"}
{"smiles": "O=C1N(O)C2(C=CCCC2)/C(=N\\O)C12CCCCC2", "note": "(stereo unspecified)", "Potency": "inactive"}
{"smiles": "CCOc1ccc(/C=C/C2=Cc3c(sc(NC(=O)CSc4n[nH]c(N)n4)c3C#N)C(C)(C)C2)cc1", "Potency": "active: 44.7 µM"}
{"smiles": "CN(Cc1cnc2nc(N)nc(N)c2n1)c1ccc(C(=O)NC(CCC(=O)O)C(=O)O)c2ccccc12", "note": "(stereo unspecified)", "Potency": "inconclusive: 11.2 µM [inhibitor, partial curve, poor fit]"}
{"smiles": "CC(=O)c1ccc(S(=O)(=O)Nc2ccc(-c3ccc4nnc(C)n4n3)cc2)cc1", "activity change, negative = inhibition": "inactive: -9.67% [at 11.6 µM]"}
{"smiles": "COc1ccccc1/C=C/C=N/NC(=O)c1cc(-c2ccco2)[nH]n1", "Potency": "inactive"}
{"smiles": "CCCCc1nnc(NC(=O)c2oc3ccccc3c2C)s1", "Potency": "inactive"}
{"smiles": "Cc1cc2cc(CNS(=O)(=O)c3ccc4ccccc4c3)ccc2n1C", "Potency": "inconclusive: 44.7 µM [inhibitor, partial curve]"}
{"smiles": "Cc1nc2cnccc2n1C", "Potency": "inactive"}
{"smiles": "C=CCOc1ccc(/C=C(\\C#N)C(=O)Nc2ccccn2)cc1", "Potency": "inactive"}
{"smiles": "CC(C)c1cc(C(=O)OCC(=O)N2CCN(C(=O)c3ccco3)CC2)c(O)c(C(C)C)c1", "Potency": "inconclusive: 89.1 µM [inhibitor, single point]"}
{"smiles": "O=C(COc1ccc(Cl)cc1)N1CCN(S(=O)(=O)c2cc(F)ccc2F)CC1", "Potency": "inactive"}
{"smiles": "CCOc1ccc(N=Cc2c(O)n(-c3cccc(C)n3)c(=O)c3ccccc23)cc1", "Potency": "inconclusive: 2.51 µM [inhibitor, partial curve, poor fit]"}
{"smiles": "Cc1cccc(CN(CC(=O)N/N=C/c2ccco2)S(=O)(=O)c2ccc(Cl)cc2)c1", "Potency": "inconclusive: 44.7 µM [inhibitor, partial curve]"}
{"smiles": "CCOc1ccc(C(=O)NCCN2CCCCC2)c(OCC)c1", "Potency": "inconclusive: 10 µM [inhibitor, full curve, poor fit]"}
{"smiles": "O=c1nc(/C=C/c2cccn2-c2ccc([N+](=O)[O-])cc2)cc(C(F)(F)F)[nH]1", "Potency": "inconclusive: 100 µM [inhibitor, partial curve]"}
{"smiles": "COc1cc(/C=N/NC(=O)CCc2n[nH]c(=O)[nH]c2=O)cc(OC)c1OC", "Potency": "inconclusive: 79.4 µM [inhibitor, single point]"}
{"smiles": "O=C(N/N=C/c1ccc(Sc2ccccn2)o1)c1cc2ccccc2cc1O", "Potency": "inconclusive: 39.8 µM [inhibitor, partial curve]"}
{"smiles": "COc1ccc(CN(C)CC(=O)Nc2ccccc2C(F)(F)F)c(OC)c1", "Potency": "inconclusive: 39.8 µM [inhibitor, partial curve]"}
{"smiles": "Cn1c(CCNC(=O)C2CCCCC2)nc2cc(NC(=O)c3cccs3)ccc21", "Potency": "inactive"}
{"smiles": "CCCC(=O)N(c1ccc2oc(=O)sc2c1)S(=O)(=O)c1cccs1", "Potency": "inconclusive: 50.1 µM [inhibitor, partial curve]"}
